# Data: PubChem BioAssay AID2685 (National Center for Advancing Translational Sciences (NCATS), 2010)
# This is one part of the list. The main result of the screen is listed elsewhere. These columns were measured beside it and carry no call. Most of these compounds were active or inconclusive in the main read-out, so they are no random draw. Potencies come from curve fits of mixed quality, noted in brackets.
# Assay: qHTS Assay for Lipid Storage Modulators in Drosophila S3 Cells;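 for cell number change: cells counted by Cell Tracker Red CMTPX staining in the red channel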
# Settings: BODIPY lipid droplet fluorescence, 18-24 h; for cell number change: measured here: cell count max response, cells fed with added oleic acid
# In short: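 Drosophila S3 cells got compounds at several concentrations plus oleic acid (400 uM solution). Laser-scanning cytometry with 488 nm excitation read lipid droplets at 500-530 nm and cells at 575-640 nm. Percent activity was relative to 20 uM Triacsin C.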
# [1] = measured here: lipid fluorescence (Fed channel) AC50, cells fed with added oleic acid
# [2] = measured here: cell number channel AC50, cells fed with added oleic acid
SMILES,cell number change,AC50 [1],AC50 [2]
COc1cccc(OC)c1C(=O)Nc1cccc2c1CCCC2,1.09%,"29.1 µM [rising, single point]",–
CCN(Cc1ccccc1)C(=O)CN1C(=O)c2ccccc2C1=O,3.97%,–,–
CCOP(=O)(c1c(F)c(F)c(F)c(F)c1F)C1(O)CCCCC1 (stereo unspecified),-33.6%,"8.2 µM [falling, partial curve]","11.6 µM [falling, partial curve, poor fit]"
O=C(CSc1nc(N2CCCCC2)nc(N2CCCCC2)n1)c1ccccc1,-5.62%,"29.1 µM [rising, partial curve, poor fit]",–
CCOC(=O)C1CCN(C(=O)CNS(=O)(=O)c2cccs2)CC1,-23.3%,"3.66 µM [falling, full curve]","0.651 µM [falling, full curve, poor fit]"
COc1ccc(CN2CCNC(=O)C2CC(=O)N2CCCN(C(C)=O)CC2)c(OC)c1 (stereo unspecified),18%,–,–
COc1ccc(NC(=O)c2nc3nccc(C)n3n2)cn1,92%,–,"29.1 µM [rising, single point]"
COc1ccc(CCNC(=O)C2CCN(S(=O)(=O)c3cccc4cccnc34)CC2)cc1OC,-36.3%,–,"14.6 µM [falling, single point]"
CC(C(=O)NCc1ccccc1)n1cc([N+](=O)[O-])cn1 (stereo unspecified),-12.1%,"6.51 µM [falling, single point]",–
Cc1cccnc1NC(=O)C1CCCN(S(=O)(=O)c2ccc3c(c2)oc(=O)n3C)C1 (stereo unspecified),6.72%,–,–
COC(CNS(=O)(=O)c1ccc(Cl)cc1)c1ccccc1 (stereo unspecified),-23.4%,"29.1 µM [falling, single point]",–
CN(C)S(=O)(=O)c1ccc(C(=O)Nc2ccc(F)cc2F)cc1,17.5%,–,–
CC1(C)CC(c2nc(-c3ccc(Cl)cc3)cs2)CCS1 (stereo unspecified),–,"4.11 µM [rising, single point]","0.58 µM [rising, partial curve]"
O=C1O[C@@H](c2ccc(O)cc2)Cc2cccc(O)c21,-3.49%,"0.00651 µM [rising, full curve, poor fit]",–
N=c1oc2ccccc2cc1C(=O)Nc1cccc(F)c1,1.42%,"29.1 µM [rising, single point]",–
COc1ccc(-c2csc3ncnc(N4CCN(S(=O)(=O)c5ccc(C(C)=O)cc5)CC4)c23)cc1,-36.3%,–,"32.6 µM [falling, single point]"
CCC(=O)N1CCN(c2ccc(NC(=S)NC(=O)c3ccc(OC)c([N+](=O)[O-])c3)cc2)CC1,-61.3%,"8.2 µM [falling, partial curve]","11.6 µM [falling, partial curve]"
O=C(O)CCCc1c(-[n+]2ccccc2)[nH]c2ccccc12,21.9%,–,–
CC(=O)Nc1cc(NC(C)=O)c(N=Nc2ccccc2)cc1C,5.76%,"2.91 µM [rising, single point]",–

# Eleven of these compounds, set out differently:
SMILES	cell number change	AC50 [1]	AC50 [2]
CCN(Cc1ccccc1)C(=O)CN1C(=O)c2ccccc2C1=O	3.97%	–	–
CCOP(=O)(c1c(F)c(F)c(F)c(F)c1F)C1(O)CCCCC1 (stereo unspecified)	-33.6%	8.2 µM [falling, partial curve]	11.6 µM [falling, partial curve, poor fit]
CCOC(=O)C1CCN(C(=O)CNS(=O)(=O)c2cccs2)CC1	-23.3%	3.66 µM [falling, full curve]	0.651 µM [falling, full curve, poor fit]
COc1ccc(CN2CCNC(=O)C2CC(=O)N2CCCN(C(C)=O)CC2)c(OC)c1 (stereo unspecified)	18%	–	–
COc1ccc(NC(=O)c2nc3nccc(C)n3n2)cn1	92%	–	29.1 µM [rising, single point]
COc1ccc(CCNC(=O)C2CCN(S(=O)(=O)c3cccc4cccnc34)CC2)cc1OC	-36.3%	–	14.6 µM [falling, single point]
Cc1cccnc1NC(=O)C1CCCN(S(=O)(=O)c2ccc3c(c2)oc(=O)n3C)C1 (stereo unspecified)	6.72%	–	–
COC(CNS(=O)(=O)c1ccc(Cl)cc1)c1ccccc1 (stereo unspecified)	-23.4%	29.1 µM [falling, single point]	–
CN(C)S(=O)(=O)c1ccc(C(=O)Nc2ccc(F)cc2F)cc1	17.5%	–	–
O=C(O)CCCc1c(-[n+]2ccccc2)[nH]c2ccccc12	21.9%	–	–
CC(=O)Nc1cc(NC(C)=O)c(N=Nc2ccccc2)cc1C	5.76%	2.91 µM [rising, single point]	–

# Further records

SMILES,cell number change,AC50 [1],AC50 [2]
Cc1ccc(-n2cc(C(C)(C)C)[nH]c2=S)cc1,-23.6%,"29.1 µM [falling, single point]",–
O=C(N/N=C/c1c[nH]c2ccccc12)C1CC1(c1ccccc1)c1ccccc1 (stereo unspecified),-72.3%,"18.4 µM [falling, single point]","18.4 µM [falling, partial curve]"
O=C1CCC(=O)N1CCC(c1ccc(F)cc1)c1ccco1 (stereo unspecified),-4.03%,"0.13 µM [falling, full curve, poor fit]","7.31 µM [falling, partial curve, poor fit]"
Cc1cc(C(=O)OCC(=O)N2CCCC2)c2ccccc2n1,124%,–,"11.6 µM [rising, partial curve]"
N#Cc1c(Nc2ccccc2C(F)(F)F)s[nH]c1=O,-59.8%,"16.4 µM [falling, partial curve, poor fit]","16.4 µM [falling, partial curve]"
COc1cccc(/C=N/n2c(N)nc3ccccc32)c1OC,-18.3%,–,–
O=C(Cc1ccc(Cl)c(Cl)c1)OCC(=O)c1ccc[nH]1,-27.3%,"0.206 µM [rising, full curve, poor fit]",–
CC(CCc1ccccc1)NC(=O)C1CCN(S(=O)(=O)N2CCCCC2)CC1 (stereo unspecified),6.88%,"25.9 µM [rising, single point]",–
CN(C)CC(C)(C)CNC(=S)NCc1ccc2c(c1)OCO2,0.628%,"1.84 µM [rising, partial curve]",–
COCCNC(=O)c1ccc2c(c1)ncn2-c1cccc(C)c1,–,"5.8 µM [rising, full curve, poor fit]",–
CC(C)c1ccccc1NC(=O)COc1ccc(C(=O)NCCc2ccccc2)cc1,-34.3%,"18.4 µM [falling, single point]","16.4 µM [falling, single point]"
O=C(O)CCCN1C(=O)/C(=C\c2ccc(-c3nc4ccccc4s3)o2)SC1=S,18.4%,–,–
Cc1ccc(-c2csc(N3N=C(c4ccccc4)/C(=C\c4ccc(N(C)C)cc4)C3=O)n2)cc1,-22.1%,–,–
NC(=O)c1ccsc1NC(=O)c1nc(-c2ccccc2)n(-c2ccccc2)n1,35.1%,"0.58 µM [rising, single point]","2.31 µM [rising, partial curve]"
O=C(Cn1c2ccc(F)cc2c2nc3n(c(=O)c21)CCS3)N1CCCC1,-19%,–,–
O=C(N/N=C/c1cc2ccccc2nc1Cl)[C@H]1C[C@@H]1c1ccccc1,-9.51%,"4.11 µM [rising, partial curve]","3.66 µM [rising, single point]"
CCOC(=O)c1cc(-c2ccccc2)sc1NC(=S)Nc1cccc(C)n1,30.8%,–,"1.46 µM [rising, partial curve, poor fit]"
COc1ccc(Cc2nnc(NC(=O)c3cccs3)s2)cc1OC,2.84%,"5.8 µM [falling, single point]",–
COc1cc2c(cc1OC)/C(=C/C(=O)c1ccc(OC)c([N+](=O)[O-])c1)NCC2,41.1%,"20.6 µM [rising, partial curve, poor fit]","1.16 µM [rising, single point]"
